Source: PMC4005696, “Type III restriction endonucleases are heterotrimeric: comprising one helicase–nuclease subunit and a dimeric methyltransferase that binds only one specific DNA” (Nucleic Acids Research, 2014)
These are yes or no findings as the source states them, for the method shown. Some entries that bind do so weakly or less than the wild type. Where a sequence is shown, tags or fusion partners need not be part of it.

Experiments:
[1] = target: T1, EcoP15I Res subunit with C-terminal Avi-tag, biotinylated (Escherichia coli) (UniProt Q5ZND2); test: native MS; EcoPI and biotinylated EcoP15I with specific 50-mer DNA; data not shown; both purified
T1 sequence (chain, biotin on the Avi-tag (co-expressed biotin ligase)): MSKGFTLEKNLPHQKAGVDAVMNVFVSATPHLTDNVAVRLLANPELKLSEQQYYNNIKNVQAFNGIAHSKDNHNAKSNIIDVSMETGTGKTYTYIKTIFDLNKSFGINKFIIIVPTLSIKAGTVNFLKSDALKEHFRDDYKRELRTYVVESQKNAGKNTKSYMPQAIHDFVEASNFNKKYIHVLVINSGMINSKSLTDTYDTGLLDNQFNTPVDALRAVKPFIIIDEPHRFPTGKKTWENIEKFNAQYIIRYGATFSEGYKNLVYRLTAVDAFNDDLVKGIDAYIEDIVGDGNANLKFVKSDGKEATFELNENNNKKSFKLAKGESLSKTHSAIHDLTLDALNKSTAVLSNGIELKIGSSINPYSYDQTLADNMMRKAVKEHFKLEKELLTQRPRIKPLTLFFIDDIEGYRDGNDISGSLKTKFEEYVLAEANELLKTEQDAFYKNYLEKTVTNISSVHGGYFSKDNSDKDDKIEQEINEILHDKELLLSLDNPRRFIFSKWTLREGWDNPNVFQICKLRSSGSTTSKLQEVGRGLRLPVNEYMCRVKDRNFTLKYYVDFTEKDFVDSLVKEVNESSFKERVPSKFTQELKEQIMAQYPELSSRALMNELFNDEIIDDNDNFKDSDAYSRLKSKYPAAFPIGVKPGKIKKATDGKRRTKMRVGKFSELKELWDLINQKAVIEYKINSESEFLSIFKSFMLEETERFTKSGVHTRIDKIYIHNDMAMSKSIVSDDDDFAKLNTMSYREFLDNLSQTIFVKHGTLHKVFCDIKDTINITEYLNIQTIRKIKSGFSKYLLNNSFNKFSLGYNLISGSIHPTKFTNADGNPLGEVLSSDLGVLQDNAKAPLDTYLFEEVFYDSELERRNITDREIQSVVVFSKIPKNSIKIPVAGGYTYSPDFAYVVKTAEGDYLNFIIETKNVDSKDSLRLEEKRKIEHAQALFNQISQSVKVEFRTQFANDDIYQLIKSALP

[2] = target: T2, EcoP15I Res subunit (wild type, untagged) (Escherichia coli) (UniProt Q5ZND2); test: SEC + other: heparin chromatography; enzyme samples with sDNA and ATP, fractions run on SDS–PAGE gels; data not shown; both purified
T2 sequence: T1 sequence (chain, biotin on the Avi-tag (co-expressed biotin ligase))

[3] = target: T2, EcoP15I Res subunit (wild type, untagged) (Escherichia coli); test: SEC-MALS; repeated in modified NEBuffer4: 20 mM Tris–acetate, pH 7.9, 10 mM CaCl2, 50 mM potassium acetate and 1 mM DTT; data not shown; both purified
[4] = target: T1, EcoP15I Res subunit with C-terminal Avi-tag, biotinylated (Escherichia coli); test: SEC-MALS; 0.5–1.0 mg/ml (1.25–2.5 µM) enzyme, Superdex 200, Standard Assay Buffer minus BSA (50 mM Tris–HCl pH 8.0, 50 mM KCl, 10 mM MgCl2, 1 mM DTT), room temperature; enzyme alone or with excess Hex-labelled specific 50-mer DNA, with or without 1 mM ATP; both purified

Measured: binding

B1: EcoP15I Mod subunit (untagged) (enzyme, Escherichia coli, UniProt P12364 1-644, looked up)
chain: MKKETIFSEVETANSKQLAVLKANFPQCFDKNGAFIQEKLLEIIRASEVELSKESYSLNWLGKSYARLLANLPPKTLLAEDKTHNQQEENKNSQHLLIKGDNLEVLKHMVNAYAEKVKMIYIDPPYNTGKDGFVYNDDRKFTPEQLSELAGIDLDEAKRILEFTTKGSSSHSAWLTFIYPRLYIARELMREDGTIFISIDHNEFSQLKLVCDEIFGEQNHVGDLVWKNATDNNPSNIAVEHEYIIVYTKNKEQLISEWKSNISDVKNLLVNIGEEFASKYTGNELQEKYTQWFREHRSELWPLDRYKYIDKDGIYTGSQSVHNPGKEGYRYDIIHPKTKKPCKQPLMGYRFPLDTMDRLLSEEKIIFGDDENKIIELKVYAKDYKQKLSSVIHLDGRVATNELKELFPEMTQPFTNAKTIKLVEDLISFACDGEGIVLDFFAGSGTTAHTVFNLNNKNKTSYQFITVQLDEPTKDKSDAMKHGYNTIFDLTKERLIRASKKNRDQGFKVYQLMPDFRAKDESELTLSNHTFFDDVVLTPEQYDTLLTTWCLYDGSLLTTPIEDVDLGGYKAHLCDGRLYLIAPNFTSEALKALLQKVDSDKDFAPNKVVFYGSNFESAKQMELNEALKSYANKKSIELDLVVRN
notes: Mod (modification) subunit of the Type III restriction endonuclease EcoP15I, Escherichia coli; also called Mod2 (as dimer); source: with biotinylated Res: avidin resin, Mono-Q
binds: all assays above
